Measurements published in PubChem BioAssay AID1347076 (National Center for Advancing Translational Sciences (NCATS), 2019).
The campaign covered roughly 400,000 compounds. About 13,000 (3.2%) were called active. The inconclusive results got no clear call from the source; some entries with a clear call stand among them for comparison. The call rests on the fitted dose curve; in most records, active means well fitted cell-killing curve with a large enough effect; inconclusive means small, poorly fitted or top-dose-only effect, or effect the other way; inactive means flat fitted curve, though single readings scatter. Where the call is inconclusive, the potency comes from a doubtful curve fit. A structure can be active in one record and inactive in another.

Assay: qHTS assay for MDR1-selective chemotherapeutics: Primary screen using the drug-selected MDR subline cells KB-V1; further: nearly all actives have a fitted effect of over 60% in size
Details: KB-V1 MDR cells viability, CellTiter-Glo, 72 h; activity change, negative = cytotoxicity: at 46.1 µM (top of the series)
Method in brief: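 KB-V1, DMEM (no phenol red) + 10% FBS; cpd pin-transferred, titration series; 72 h, 37 degrees C; CellTiter-Glo, luminescence. Data normalized, curve-fit.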
On the % scale 0 is the no-effect control and ±100 the full control effect; potency means the concentration at half of the fitted maximal effect.

Q: With CC1(C(=O)NS(=O)(=O)Cc2cccc(Cl)c2)CCN1C(=O)C/C=C/c1ccccc1 (stereo unspecified) as the molecule, how does the “activity change, negative = cytotoxicity” value read?
A: inactive: 2.65%

Q: With CCCCOc1cc(CC2CNC(=O)N2)ccc1OC (stereo unspecified) as the molecule, how does the Potency read?
A: inconclusive: 25.9 µM [cytotoxic, single point]

Q: For CC(C)(C)OC(=O)C[C@@H]1C/C=C\C[C@@H](CC(=O)NCCO)C(=O)N2CCC[C@H]2COC1=O, which Potency is on record?
A: inconclusive: 2.31 µM [rising, partial curve, poor fit]

Q: Which Potency does the source give for O=S(=O)(Nc1ccc2nc(C(F)(F)F)[nH]c2c1)c1ccccc1 here?
A: inconclusive: 20.6 µM [cytotoxic, single point]

Q: With CC(C(=O)N=Nc1c(O)[nH]c2ccccc12)n1cnc2ccccc2c1=O (stereo unspecified) as the molecule, how does the Potency read?
A: active: 18.4 µM

Q: With COc1ccccc1C(=O)CC(=O)C(=O)Nc1cccc([N+](=O)[O-])c1C as the molecule, how does the Potency read?
A: inconclusive: 18.4 µM [cytotoxic, single point]

Q: With CC1(c2ccc3noc(-c4ccc(Cl)cc4)c3c2)OCCO1 as the molecule, how does the Potency read?
A: inconclusive: 20.6 µM [cytotoxic, partial curve]

Q: Which Potency does the source give for COC(=O)c1ccc2c(=O)n(CCCN3CCOCC3)c(=S)[nH]c2c1 here?
A: inconclusive: 7.31 µM [cytotoxic, partial curve, poor fit]

Q: For CCC(=O)/C=C1/Sc2ccccc2N1CC, which “activity change, negative = cytotoxicity” value is on record?
A: inactive: -1.99%

Q: With Cc1ccc(C)c(C2C(=O)c3ccccc3C2=O)c1 as the molecule, how does the “activity change, negative = cytotoxicity” value read?
A: inactive: -12.7%

Q: For S=C1NCCNC(=S)NCCOCCN1, which Potency is on record?
A: inconclusive: 18.4 µM [rising, partial curve]

Q: Which Potency does the source give for COc1ccc(C(CNC(=O)c2cccc(S(=O)(=O)Nc3cccc(C)c3)c2)N2CCOCC2)cc1 (stereo unspecified) here?
A: active: 20.6 µM

Q: Which Potency does the source give for COC(=O)c1c(C)oc2c1cc(NS(=O)(=O)c1cccs1)c1ccccc12 here?
A: inconclusive: 29.1 µM [cytotoxic, single point]

Q: With N=c1c(C(=O)NCCc2ccccc2)cc2c(=O)n3ccccc3nc2n1CCCN1CCOCC1 as the molecule, how does the Potency read?
A: inconclusive: 29.1 µM [cytotoxic, partial curve, poor fit]

Q: For O=C(NCCc1ccccc1)C(c1cccs1)N(C(=O)c1csnn1)C1CC1 (stereo unspecified), which “activity change, negative = cytotoxicity” value is on record?
A: inactive: -11.3%

Q: Which “activity change, negative = cytotoxicity” value does the source give for COc1ccccc1NC(=O)NNC(=O)C(C)Oc1ccc2ccccc2c1 (stereo unspecified) here?
A: inactive: 9.87%

Q: Which “activity change, negative = cytotoxicity” value does the source give for CCN(CC)S(=O)(=O)c1ccc(NC(=O)NCc2noc3ccc(C)cc23)cc1 here?
A: inactive: -15.2%

Q: With CCOc1ccc(-n2c(SCC(=O)N3CCc4ccccc43)nc3c([nH]c4ccccc43)c2=O)cc1 as the molecule, how does the Potency read?
A: inconclusive: 14.6 µM [rising, single point]

Q: With O=C(Nc1ccc2c(c1)OCO2)c1ccc(N2CCCC2)c([N+](=O)[O-])c1 as the molecule, how does the Potency read?
A: active: 23.1 µM

Q: For COc1cccc2c1ncc1c(-c3ccc(C)cc3)nn(-c3cccc([N+](=O)[O-])c3)c12, which “activity change, negative = cytotoxicity” value is on record?
A: inactive: 1.12%

Q: Which Potency does the source give for COc1ccc(OCCOC(=O)c2nc3nccc(C)n3n2)cc1 here?
A: inconclusive: 0.651 µM [rising, full curve, poor fit]

Q: Which Potency does the source give for Cc1c(C(=O)c2cccc(F)c2)c2ccccn2c1CCC#N here?
A: inconclusive: 11.6 µM [cytotoxic, partial curve]

Q: For COC(=O)c1c(NC(=O)COc2ncnc3ccccc23)sc(C)c1C, which Potency is on record?
A: active: 14.6 µM

Q: With CCC(=O)Nc1cc(-c2cccc(C)c2)nn1-c1ccccc1 as the molecule, how does the “activity change, negative = cytotoxicity” value read?
A: inactive: 0.834%

Q: For Cc1cc(N/N=C/c2ccccc2[N+](=O)[O-])nc(-n2nc(C)cc2C)n1, which Potency is on record?
A: inconclusive: 13 µM [cytotoxic, partial curve, poor fit]

Q: With CCOC(=O)CNc1nc(Oc2ccc(=O)n(C)n2)nc(N(CC)CC)n1 as the molecule, how does the Potency read?
A: inconclusive: 16.4 µM [cytotoxic, single point]

Q: For Cc1ccccc1Cn1ccc(NC(=O)c2nn(C)cc2[N+](=O)[O-])n1, which Potency is on record?
A: inconclusive: 29.1 µM [cytotoxic, single point]

Q: Which Potency does the source give for Cc1cc(NS(=O)(=O)c2ccccc2)c([N+](=O)[O-])cc1C here?
A: inconclusive: 18.4 µM [cytotoxic, single point]

Q: Which Potency does the source give for COc1cc(C2c3cc4c(cc3OC(C)(N3CCCC3)C2C)OCO4)cc(OC)c1OC (stereo unspecified) here?
A: active: 2.59 µM

Q: For COc1ccccc1NS(=O)(=O)c1cc(NC(=O)c2ccc(Cl)nc2)ccc1N1CCCC1, which Potency is on record?
A: active: 4.11 µM

Q: With O=C(Nc1cnccn1)Nc1cccc(Cl)c1Cl as the molecule, how does the Potency read?
A: active: 11.6 µM

Q: Which “activity change, negative = cytotoxicity” value does the source give for Cc1cc(C)cc(NC(=O)C(=O)NCC(c2ccc3c(c2)OCO3)N2CCN(C)CC2)c1 (stereo unspecified) here?
A: inactive: -4.05%

Q: Which Potency does the source give for CC(C)(NO)/C(=N/O)c1cccs1 here?
A: inconclusive: 29.1 µM [rising, single point]

Q: Which Potency does the source give for Cc1ccc(C2CCN(C(=O)c3cnn(-c4cccc(Cl)c4)c3C3CCN(C(=O)OC(C)(C)C)CC3)C2)cc1 (stereo unspecified) here?
A: inconclusive: 20.6 µM [cytotoxic, single point]

Q: Which Potency does the source give for O=C(COc1ccccc1)Nc1ccc([N+](=O)[O-])cc1 here?
A: inconclusive: 14.6 µM [cytotoxic, partial curve, poor fit]

Q: For O=C(Cc1ccc(Cl)cc1)NNC(=O)c1ccco1, which Potency is on record?
A: inconclusive: 18.4 µM [rising, partial curve]

Q: For O=C(CSc1nncs1)NNC(=O)c1ccco1, which Potency is on record?
A: inconclusive: 13 µM [rising, partial curve, poor fit]

Q: With COc1cccc(/C=N/NC(=O)c2c(C)nc3ccc(Cl)cn23)c1O as the molecule, how does the Potency read?
A: inconclusive: 1.16 µM [cytotoxic, full curve, poor fit]

Q: For O=[N+]([O-])c1ccc(CNc2ccc(Cl)cc2)s1, which “activity change, negative = cytotoxicity” value is on record?
A: inactive: 9.01%

Q: For COc1cc(C(=O)NCC(=O)N/N=C(\C)Cc2ccccc2)cc(OC)c1OC, which “activity change, negative = cytotoxicity” value is on record?
A: inactive: 0%

Q: For CCc1nc2ccc(C(=O)Nc3cc(-c4ccccc4)ccc3OC)cn2c1N(CCN(C)C)CC1CC1, which Potency is on record?
A: inconclusive: 29.1 µM [cytotoxic, single point]

Q: Which Potency does the source give for O=C1NC(=S)SC1=Cc1ccc2c(c1)OCO2 here?
A: inconclusive: 29.1 µM [cytotoxic, single point]

Q: Which Potency does the source give for COc1cc(-c2noc(C)c2C#Cc2ccsc2)cc(OC)c1OC here?
A: active: 3.26 µM

Q: Which “activity change, negative = cytotoxicity” value does the source give for C[C@H]1C=C(C(=O)NCc2nc3ccccc3[nH]2)O[C@@H](OCCCCO)C1 here?
A: inactive: 17%

Q: Which “activity change, negative = cytotoxicity” value does the source give for COc1ccc(OC)c(NC(=O)c2cc(-c3ccc(Cl)s3)nc3ccccc23)c1 here?
A: inactive: -9.35%

Q: For CC1CCCC(C)N1C(=O)c1ccc(S(=O)(=O)NCc2ccco2)cc1 (stereo unspecified), which “activity change, negative = cytotoxicity” value is on record?
A: inactive: -29.8%
